What was measured:
Conditions in all cases: whole synthesis, scale 0.25 mmol
[1] = general procedure: Fmoc solid-phase peptide synthesis; Fmoc-amide resin; HBTU/HOBt; DCC/HOBt for final Boc-Gly
[2] = general procedure: Fmoc solid-phase peptide synthesis; Fmoc-Arg(Pmc)-HMP resin; HBTU/HOBt; DCC/HOBt for final Boc-Gly
[3] = general procedure: Fmoc solid-phase peptide synthesis; Fmoc-Arg(Pmc)-HMP-resin; HBTU/HOBt; DCC/HOBt for final Boc-Gly
[4] = general procedure: Fmoc solid-phase peptide synthesis; Fmoc-amide-resin; HBTU/HOBt; DCC/HOBt for final Boc-Gly

C7H15CO-GSSFLSPEH-NH2
crude mass [1]: 200 mg

GSC(C-Ph3) FLSPEHQRVQQRKESKKPPAKLQPR
isolated mass [2]: about 60 mg

GSD (NH—C7H15) FLSPEHQRVQQRKESKKPPAKLQPR
crude mass [3]: about 550 mg

GSK (CO—C7H15) FLSPEHQRVQQRKESKKPPAKLQPR
crude mass [3]: about 234 mg

GSS(CO—C7H15)FLSPEH-NH2
crude mass [4]: about 250 mg

GSS(CO—C7H15)FLSPEHQRVQQRKESKKPPAKLQPR
crude mass [3]: about 550 mg

NH2—(CH2)4—CO-Ser(C8H17)-MePhe-MeLeu-NH2
crude mass [1]: 120 mg

From patent publication US7385026B1 (priority 1999, dated 2008)
